Not every detail of the peptide structures is certain; ends, links or a residue may be inferred. Where no end group is shown, it is not given here.
Tested on: heparin
Experiment: Antagonism of protamine-like peptides against heparin anticoagulation in vitro (heparin neutralization, rabbit whole blood clotting)
Design: species or system New Zealand rabbits
Conditions: rabbit whole blood added with heparin
Description: Reference standard of heparin was exactly weighed and then dissolved into several solutions with different concentrations by adding 0.9% sodium chloride solution according to the marked potency. The increment of heparin units per mL between two solutions having adjacent concentrations should be similar with no more than five units.
The test sample was the protamine-like peptide. If the test sample was in a powder form, it was accurately weighed on the basis of dry sample. Then, a solution of 0.9% sodium chloride was added thereto to provide a solution containing 1 mg of test sample per mL.
Eight small dry clean teat tubes with the same diameter (0.8 × 3.8 cm) were picked. Tube 1 and Tube 8 were used as the blank control into which 0.2 mL of 0.9% sodium chloride solution was added. Tube 2 to Tube 7 were used as the ones with test samples into each of which 0.1 ml of test solution was added together with 0.1 ml of heparin standard dilution having one concentration mentioned above. The mixture was well mixed immediately. An appropriate amount (0.8 ml) of whole blood freshly drawn from rabbits was added into these eight test tubes described above and then well mixed immediately to avoid generation of bubbles. Timing began at that time and the test tubes were all placed in a thermostatic water bath at 37 ± 0.5 °C. The interval between blood sampling and tube incubation in the thermostatic water bath should not be longer than two minutes. If the plasma was used, then 0.7 mL of plasma was added to each of the test tubes described above and then the test tubes were placed into a thermostatic water bath at 37 ± 0.5 °C to warm up for 5 to 10 minutes. Then, into each test tube, 0.1 mL of 1% calcium chloride solution was added and immediately mixed to avoid generation of bubbles. At that time, timing began. The test tubes were observed and the time until coagulation was recorded.
The clotting time in one control tube should not be more than 1.35 times longer than that in the other control tube. Among test tubes where the clotting time was no longer than 150% of the average coagulating time in two control tubes, the tube with the highest concentration of heparin was used as the endpoint tube.
The test was repeated for five times. The concentration of heparin in the endpoint tube was measured in all five tests, and the deviation was not allowed to be higher than 10 units. The average from five tests was deemed as the number of units of the heparin neutralized by 1 mg of the test sample (dry product) (the amount of neutralized heparin).
The anticoagulant time of heparin, i.e. the clotting time from the addition of the series of protamine-like peptides, were recorded where the clotting time in tubes with plasma but not heparin was considered as the control clotting time. The average value in each coagulation test was calculated, and ratio of the concentration in nmol of the added potamine-like peptide to 1 IU of neutralized heparin was regarded as the anti-heparin index (I) of the protamine-like peptide. Anti-heparin index = concentration of polypeptide/1 unit of heparin (nmol/U). [formula]

## KKKKKKKKKKKKKKK [K15, (K)15]
Average from five tests
  Amount of neutralized heparin (U/mg) Mean ± SD: 82±1.86 U/mg
37 °C, blank control 10.62±0.49
  Clotting time: 18.35 ± 0.33 min
Repeat 1 of 5, test sample 1 mg per mL
  Amount of neutralized heparin (U/mg) 1: 80 U/mg
Repeat 2 of 5, test sample 1 mg per mL
  Amount of neutralized heparin (U/mg) 2: 82 U/mg
Repeat 3 of 5, test sample 1 mg per mL
  Amount of neutralized heparin (U/mg) 3: 83 U/mg
Repeat 4 of 5, test sample 1 mg per mL
  Amount of neutralized heparin (U/mg) 4: 85 U/mg
Repeat 5 of 5, test sample 1 mg per mL
  Amount of neutralized heparin (U/mg) 5: 83 U/mg
